For four molecules, binding results are on record in PMC2362351.

Sequences of proteins named here, by UniProt entry; tags and fusion partners are left off. A change or cut given only in a name is not applied to a line headed by its entry.
UniProt P12830: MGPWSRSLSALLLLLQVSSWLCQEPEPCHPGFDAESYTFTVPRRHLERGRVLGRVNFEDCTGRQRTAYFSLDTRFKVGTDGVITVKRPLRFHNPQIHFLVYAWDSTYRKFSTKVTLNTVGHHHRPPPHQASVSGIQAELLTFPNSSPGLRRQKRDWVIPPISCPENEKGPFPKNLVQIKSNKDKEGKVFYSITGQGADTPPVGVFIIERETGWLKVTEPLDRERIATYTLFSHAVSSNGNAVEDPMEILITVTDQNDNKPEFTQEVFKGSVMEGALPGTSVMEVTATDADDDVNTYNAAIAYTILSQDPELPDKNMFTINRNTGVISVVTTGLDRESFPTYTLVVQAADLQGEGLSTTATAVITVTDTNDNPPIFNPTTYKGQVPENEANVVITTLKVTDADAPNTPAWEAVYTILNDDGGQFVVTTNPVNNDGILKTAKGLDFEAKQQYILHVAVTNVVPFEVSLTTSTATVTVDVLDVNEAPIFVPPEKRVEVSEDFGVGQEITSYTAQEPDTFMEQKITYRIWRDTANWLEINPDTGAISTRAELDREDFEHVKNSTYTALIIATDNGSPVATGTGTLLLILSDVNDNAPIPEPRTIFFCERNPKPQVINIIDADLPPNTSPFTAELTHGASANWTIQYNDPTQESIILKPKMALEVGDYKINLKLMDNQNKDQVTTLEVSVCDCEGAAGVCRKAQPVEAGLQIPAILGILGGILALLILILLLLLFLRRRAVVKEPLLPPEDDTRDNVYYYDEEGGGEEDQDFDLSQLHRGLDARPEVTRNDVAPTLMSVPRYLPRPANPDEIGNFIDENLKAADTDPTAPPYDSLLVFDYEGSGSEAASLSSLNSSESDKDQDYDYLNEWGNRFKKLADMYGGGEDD

For assay [1], the target named is T1, gamma-catenin (human (endogenous in HT29, Kato 3, MKN7, MKN45)) (UniProt P14923).
T1 sequence: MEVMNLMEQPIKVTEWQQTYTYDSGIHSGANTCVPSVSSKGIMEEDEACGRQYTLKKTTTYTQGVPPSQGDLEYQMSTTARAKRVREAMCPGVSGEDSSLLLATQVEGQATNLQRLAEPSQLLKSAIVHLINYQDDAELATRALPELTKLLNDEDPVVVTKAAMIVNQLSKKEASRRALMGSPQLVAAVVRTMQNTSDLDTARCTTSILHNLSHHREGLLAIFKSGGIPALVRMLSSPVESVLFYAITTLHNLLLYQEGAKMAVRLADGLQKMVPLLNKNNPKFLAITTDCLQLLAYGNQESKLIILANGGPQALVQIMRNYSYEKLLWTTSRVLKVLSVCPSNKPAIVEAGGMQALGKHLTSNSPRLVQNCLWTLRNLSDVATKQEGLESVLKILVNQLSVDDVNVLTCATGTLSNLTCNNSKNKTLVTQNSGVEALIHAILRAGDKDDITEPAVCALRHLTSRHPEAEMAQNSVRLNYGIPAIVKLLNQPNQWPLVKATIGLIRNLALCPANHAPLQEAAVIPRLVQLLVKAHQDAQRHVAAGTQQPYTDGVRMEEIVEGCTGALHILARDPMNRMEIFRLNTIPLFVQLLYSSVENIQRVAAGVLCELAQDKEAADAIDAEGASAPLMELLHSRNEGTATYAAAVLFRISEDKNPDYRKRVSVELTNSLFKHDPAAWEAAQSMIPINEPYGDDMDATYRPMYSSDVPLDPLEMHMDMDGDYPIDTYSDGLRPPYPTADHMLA
Description: co-IP; HT29 cell extract (0.5% Triton X-100 buffer: 50 mM NaCl, 10 mM Pipes, MgCl2, 300 mM sucrose), endogenous proteins; precleared with mouse IgG; antibody on protein G sepharose 2 h at 4 C; washed with high stringency, high salt and low salt buffers; SDS-PAGE and Western blot. In general terms: Immunoblotting shows a protein as a band on a membrane.

Assay [2] addresses T1, gamma-catenin (human (endogenous in HT29, Kato 3, MKN7, MKN45)). Description: co-IP; MKN45 cell extract, endogenous proteins; same procedure (Triton X-100 lysis, protein G sepharose, high stringency, high salt and low salt washes, Western blot).
The target in assay [3] is T2, p120ctn (human (endogenous in Kato 3, MKN7, MKN45)) (UniProt O60716).
T2 sequence: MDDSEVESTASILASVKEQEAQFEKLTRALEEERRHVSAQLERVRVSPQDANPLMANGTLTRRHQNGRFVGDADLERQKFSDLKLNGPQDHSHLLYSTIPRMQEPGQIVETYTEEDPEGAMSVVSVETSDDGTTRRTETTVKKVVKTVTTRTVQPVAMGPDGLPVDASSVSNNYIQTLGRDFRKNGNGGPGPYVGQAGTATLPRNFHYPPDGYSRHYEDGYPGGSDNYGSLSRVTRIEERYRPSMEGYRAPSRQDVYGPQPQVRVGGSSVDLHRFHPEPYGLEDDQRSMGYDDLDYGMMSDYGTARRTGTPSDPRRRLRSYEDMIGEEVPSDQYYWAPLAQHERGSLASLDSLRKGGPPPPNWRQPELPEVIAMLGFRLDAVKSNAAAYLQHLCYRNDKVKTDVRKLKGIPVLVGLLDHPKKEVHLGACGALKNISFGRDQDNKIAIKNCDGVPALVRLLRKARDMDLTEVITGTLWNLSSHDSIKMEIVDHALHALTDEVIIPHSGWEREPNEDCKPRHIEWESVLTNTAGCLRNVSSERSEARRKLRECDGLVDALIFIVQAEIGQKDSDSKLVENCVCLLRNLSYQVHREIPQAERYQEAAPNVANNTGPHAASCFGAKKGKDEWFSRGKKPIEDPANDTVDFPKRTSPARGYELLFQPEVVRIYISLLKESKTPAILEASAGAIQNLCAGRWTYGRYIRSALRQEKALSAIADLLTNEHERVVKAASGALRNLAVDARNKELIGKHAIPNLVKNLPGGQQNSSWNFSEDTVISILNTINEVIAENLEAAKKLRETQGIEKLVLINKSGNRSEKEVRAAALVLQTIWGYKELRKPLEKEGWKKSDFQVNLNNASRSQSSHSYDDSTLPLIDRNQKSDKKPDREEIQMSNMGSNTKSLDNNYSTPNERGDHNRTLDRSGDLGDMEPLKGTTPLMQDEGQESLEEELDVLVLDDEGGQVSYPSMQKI
The assay is described as above.

In assay [4] the target is E-cadherin (human (endogenous in HT29, HSC39, MKN7)). The experiment in a line: co-IP; MKN7 cell extract, endogenous proteins; same procedure (Triton X-100 lysis, protein G sepharose, high stringency, high salt and low salt washes, Western blot).

These are yes or no findings as the source states them, for the method shown. In cells and extracts the contact can be indirect. For some assays here: A result given as binding can be weak or reduced; the word gives no strength.

“E-cadherin (human (endogenous in HT29, HSC39, MKN7))”: the binding result in assay [1] is given as “binds”. On to “E-cadherin of MKN45 (mutant) (from UniProt P12830)”, for which the binding result in assay [2] is given as “binds”; in assay [3], “no binding”. As for alpha-catenin, the binding result in assay [1] is reported as “binds”.

B1: gamma-catenin (protein, UniProt P14923 1-745)
chain: MEVMNLMEQPIKVTEWQQTYTYDSGIHSGANTCVPSVSSKGIMEEDEACGRQYTLKKTTTYTQGVPPSQGDLEYQMSTTARAKRVREAMCPGVSGEDSSLLLATQVEGQATNLQRLAEPSQLLKSAIVHLINYQDDAELATRALPELTKLLNDEDPVVVTKAAMIVNQLSKKEASRRALMGSPQLVAAVVRTMQNTSDLDTARCTTSILHNLSHHREGLLAIFKSGGIPALVRMLSSPVESVLFYAITTLHNLLLYQEGAKMAVRLADGLQKMVPLLNKNNPKFLAITTDCLQLLAYGNQESKLIILANGGPQALVQIMRNYSYEKLLWTTSRVLKVLSVCPSNKPAIVEAGGMQALGKHLTSNSPRLVQNCLWTLRNLSDVATKQEGLESVLKILVNQLSVDDVNVLTCATGTLSNLTCNNSKNKTLVTQNSGVEALIHAILRAGDKDDITEPAVCALRHLTSRHPEAEMAQNSVRLNYGIPAIVKLLNQPNQWPLVKATIGLIRNLALCPANHAPLQEAAVIPRLVQLLVKAHQDAQRHVAAGTQQPYTDGVRMEEIVEGCTGALHILARDPMNRMEIFRLNTIPLFVQLLYSSVENIQRVAAGVLCELAQDKEAADAIDAEGASAPLMELLHSRNEGTATYAAAVLFRISEDKNPDYRKRVSVELTNSLFKHDPAAWEAAQSMIPINEPYGDDMDATYRPMYSSDVPLDPLEMHMDMDGDYPIDTYSDGLRPPYPTADHMLA
Turning to B1, the binding result in assay [4] is “binds”.
